For one molecule, binding results are on record in publication PMC8580627.

The chains behind the UniProt entries cited, without tags or fusion partners.
UniProt Q96EB6: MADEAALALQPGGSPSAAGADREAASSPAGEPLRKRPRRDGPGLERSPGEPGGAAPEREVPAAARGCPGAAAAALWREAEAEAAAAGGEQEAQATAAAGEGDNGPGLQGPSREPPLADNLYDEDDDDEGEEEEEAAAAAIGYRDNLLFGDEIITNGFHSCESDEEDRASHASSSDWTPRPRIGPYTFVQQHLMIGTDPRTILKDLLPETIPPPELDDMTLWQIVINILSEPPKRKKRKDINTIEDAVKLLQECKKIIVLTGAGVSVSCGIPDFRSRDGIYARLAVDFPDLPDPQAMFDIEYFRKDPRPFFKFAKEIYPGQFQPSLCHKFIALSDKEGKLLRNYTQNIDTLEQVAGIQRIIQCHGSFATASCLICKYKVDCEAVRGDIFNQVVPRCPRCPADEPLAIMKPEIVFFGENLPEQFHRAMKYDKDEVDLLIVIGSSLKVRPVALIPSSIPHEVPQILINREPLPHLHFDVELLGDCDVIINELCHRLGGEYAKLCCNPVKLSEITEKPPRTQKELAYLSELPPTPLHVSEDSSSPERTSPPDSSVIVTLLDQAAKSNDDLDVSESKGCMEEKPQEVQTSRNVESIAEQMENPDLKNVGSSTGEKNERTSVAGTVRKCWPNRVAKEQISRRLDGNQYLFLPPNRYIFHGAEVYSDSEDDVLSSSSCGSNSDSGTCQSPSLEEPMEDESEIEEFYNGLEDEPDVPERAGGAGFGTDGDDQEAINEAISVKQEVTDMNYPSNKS

The target of this experiment is Sirtuin-1 (SIRT1) (human) (UniProt Q96EB6). As to the kind of experiment: co-IP; WI-38 whole cell lysates in RIPA buffer, sonicated, precleared with protein G agarose; 5 ul SIRT1 antibody, DRG2 antibody or normal IgG overnight at 4°C; captured on rProtein G agarose 4 h at 4°C; western blot.

No constants are given. Whether binding was seen depends on the method and setting. Binding seen in cells or lysates may run through a third protein.

B1: developmentally regulated GTP-binding protein 2 (DRG2) (protein, UniProt P55039 1-364)
chain: MGILEKISEIEKEIARTQKNKATEYHLGLLKAKLAKYRAQLLEPSKSASSKGEGFDVMKSGDARVALIGFPSVGKSTFLSLMTSTASEAASYEFTTLTCIPGVIEYKGANIQLLDLPGIIEGAAQGKGRGRQVIAVARTADVIIMMLDATKGEVQRSLLEKELESVGIRLNKHKPNIYFKPKKGGGISFNSTVTLTQCSEKLVQLILHEYKIFNAEVLFREDCSPDEFIDVIVGNRVYMPCLYVYNKIDQISMEEVDRLARKPNSVVISCGMKLNLDYLLEMLWEYLALTCIYTKKRGQRPDFTDAIILRKGASVEHVCHRIHRSLASQFKYALVWGTSTKYSPQRVGLTHTMEHEDVIQIVKK
For B1, the binding entry is recorded as “no binding”.
